At least one compound was matched to its structure with a doubt left.
Tested on: HepG2 cells
Test: Accumulation of cholesterol precursors / C29-sterols (MAS) in HepG2 cells, GC/MS (SIM)
Type: cell-based, Human
Experimental: Human hepatoma HepG2 cells were cultured to confluency in 60-mm dishes in phenol-red-free Dulbecco's modified Eagle's medium (DMEM) containing Pen-Strep (100 µg/ml), glucose (10 mM), sodium bicarbonate (45 mM) and glutamine (4 mM) supplemented with 10% fetal calf serum as described previously (24). At the beginning of the experiment the medium was changed to serum-free DMEM supplemented with 10% lipid-free "controlled process serum replacement" (CPSR-1). Compounds were added from ethanolic stock solutions to produce final ethanol concentrations of 0.1-0.3% v/v. Controls received the same amount of ethanol. Aminotriazole was added in an aqueous solution. Slices of rat testis (25 µm; 25-50 mg wet weight) were incubated under the same conditions in a shaking water bath (37°C). For isotopomer spectral analysis (ISA) of lathosterol, 1-^13C-acetate was added in an aqueous solution to a final concentration of 1 mM.
Cells were washed three times with ice cold PBS (pH 7.4) (once with 2 mg/ml BSA and twice with PBS alone). Epicoprostanol (1 µg in 50 µl of hexane) was added as internal standard to each sample. Sterols were extracted in hexane/isopropanol (3:2 v/v; two times with 4 ml). After drying under nitrogen and alkaline hydrolysis (1 N NaOH in 80% ethanol, 1.5 h at 70°C), the sterols were extracted with cyclohexane (two times with 3 ml). After drying under nitrogen, sterols were converted to their trimethylsilyl (TMS) derivatives by adding 100 µl bis(trimethylsilyl)trifluoracetamide (Pierce)/n-decane (1:1; v/v) and heating for 1 h at 70°C in a conical glass tube. This solution (1-2 µl) was used for gas-chromatography/mass-spectrometry (GC/MS). […]
Gas-chromatography was done in the splitless mode with temperature programming as follows: 150°C for 1 min, followed by 20°C/min up to 260°C and 10°C/min up to 280°C (hold for 15 min). […] The internal standard epicoprostanol was monitored at m/z 370. […] Peak integration was performed manually, and sterols were quantified from SIM analyses against the internal standard. […]

[1] = RU486 2 µM in the presence of progesterone 10 µM, 12 h

Compound	effect on the accumulation of desmosterol observed with progesterone [1]	effect on the decline in the ratio of dihydrolanosterol to lanosterol observed with progesterone [1]	changes in the cholesterol precursor pattern (at 10 µM, compared to potent inhibitors, data not shown)
CC#C[C@]1(O)CC[C@H]2[C@@H]3CCC4=CC(=O)CCC4=C3[C@@H](c3ccc(N(C)C)cc3)C[C@@]21C [RU486]	did not counteract	did not counteract	
C[C@]12CC[C@@H]3c4ccc(O)cc4CC[C@H]3[C@@H]1CCC2=O [estrone]			only minor changes

— patent publication EP1216701A1, “Process to increase the concentration of meiosis-activating sterols (MAS) in the cholesterol synthesis and the use of potent inhibitors in the process” (Schering Aktiengesellschaft, priority 2000, dated 2002)
